Source: article PMC9293670 (Acta Pharmaceutica Sinica. B, 2022)

System: hippocampus neurons
Test: HE staining of hippocampal CA3 region in UCCAO mice
Assay type: in vivo, C57BL/6J mice
Conditions: vs model group

## COc1cc2c(cc1OC)C(=O)C(CC1CCN(Cc3ccccc3)CC1)C2 (stereo not shown) [donepezil]
  histological changes of hippocampus neurons (HE staining): clearly reduced the shrunken or irregular neurons
